# According to the RNAGym collection of RNA variant scans (doi:10.1126/science.aae0568):
# Variants at the background level are over-represented here.
# B1: tRNA (parent)
# chain: GUUCCGUUGGCGUAAUGGUAACGCGUCUCCCUCCUAAGGAGAAGACUGCGGGUUCGAGUCCCGUACGGAACG
# Variants of: B1
# Assay: yeast fitness relative to wild type (ratio to wild type); higher = fitter; tRNA-Arg(CCU), competitive growth, 37 C, YPD
# In short: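 A pool of Saccharomyces cerevisiae strains, each with a tRNA-Arg(CCU) gene variant at the native genomic locus, was competed in YPD at 37°C for 24 hours across six parallel replicates. The variants had been chemically synthesised at a 3% per-site mutation rate over 69 sites, and gene amplicons before and after competition were read by 100-nucleotide paired-end sequencing. Darwinian fitness relative to wild type rested on changes in genotype frequencies. Genotypes required ≥ 100 starting reads, and estimates < 0.5 were set to 0.5.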
row,Variant,yeast fitness
1,U2G C4U C11G G18C U32C C34U A45U A70U,≤ 0.5
2,U2G C4U C22U C30G C55U,≤ 0.5
3,U2G C4U C24U G48C C60G G67A,≤ 0.5
4,U2G C5A U19A C30G A43C G50A C55U,≤ 0.5
5,U2G C5G U47G,≤ 0.5
6,U2G C11G A20G C24U C31G G58C C66G,≤ 0.5
7,U2G C11G A36C C61G,≤ 0.5
8,U2G C11G G63U,≤ 0.5
9,U2G C11U A20C A70C,0.667
10,U2G C11U G17C A20C C49A G63A,≤ 0.5
11,U2G C11U G17C A20C C60U C61U,≤ 0.5
12,U2G C11U G23A,≤ 0.5
13,U2G C22U C24G C49U A69C,≤ 0.5
14,U2G C22U C24G G67A,≤ 0.5
15,U2G C30A C31U A45C C55G,≤ 0.5
16,U2G C31U G48C G67C,0.702
17,U2G C33A C46U C61G,≤ 0.5
18,U2G C33A C49G,≤ 0.5
19,U2G C34A C49A G63U G67A,≤ 0.5
20,U2G C34G C49G U54A A57C G68A,≤ 0.5
21,U2G C46A G68C,≤ 0.5
22,U2G C49G U53A,≤ 0.5
23,U2G G6A A70U,≤ 0.5
24,U2G G6A C31G G51A G68C,≤ 0.5

row,Variant,yeast fitness
1,U2G G6A G23C G38A G58C A70G,≤ 0.5
2,U2G G6A G67C,≤ 0.5
3,U2G G9C A14C C27U U47C G58A,≤ 0.5
4,U2G G9C A20G A42C C46G C49U A69C,0.576
5,U2G G9C A20G A42C C46G C49U G67A A69U,≤ 0.5
6,U2G G9C A37C A43G,≤ 0.5
7,U2G G9C G10A A65C,≤ 0.5
8,U2G G10C C66A,≤ 0.5
9,U2G G10C U59A,≤ 0.5
10,U2G G12A A21U C29G G58C,≤ 0.5
11,U2G G17A G23A G38C A40G A57G,≤ 0.5
12,U2G G18A C60U C61A G67C,≤ 0.5
13,U2G G39C C49G A57U A69U,≤ 0.5
14,U2G G39C C66A,≤ 0.5
15,U2G G58C C62G,≤ 0.5
16,U2G U3A,0.736
17,U2G U7C G18C A42U C49G,≤ 0.5
18,U2G U7G U16C C62U A65C,≤ 0.5
19,U2G U13A C33U,≤ 0.5
20,U2G U13A G17C U26A C46G A57G,≤ 0.5
21,U2G U13C A21G U35A C55U A70G,≤ 0.5
22,U2G U16G C27A C29U A36C G51A,≤ 0.5
23,U2G U28A C30U C66U A69U,≤ 0.5
24,U2G U28A U54C C62G,≤ 0.5

row,Variant,yeast fitness
1,U2G U28C C66U,≤ 0.5
2,U2G U54G A57C C62U,≤ 0.5
3,U2G U59G A70C,≤ 0.5
4,U3A A14C A20C U64A,≤ 0.5
5,U3A A14C C27A C31A,≤ 0.5
6,U3A A14C C60A,≤ 0.5
7,U3A A14G A15G A20U A37G G41A A69C,≤ 0.5
8,U3A A14G G48C,≤ 0.5
9,U3A A15C C31G C33G,≤ 0.5
10,U3A A21C U26C A40C A45G U59A,≤ 0.5
11,U3A A21C U26C A42C,≤ 0.5
12,U3A A21G C55G A70G,≤ 0.5
13,U3A A21U C60G,≤ 0.5
14,U3A A36C G51C A69U,≤ 0.5
15,U3A A36C G51C U53C,≤ 0.5
16,U3A A40C G67C,≤ 0.5
17,U3A A42C A65U C66U G67C,0.569
18,U3A A43G C60U C62U A70C,≤ 0.5
19,U3A C4A C24G C29A G50C A57C,≤ 0.5
20,U3A C4G A40C G44A C61G,≤ 0.5
21,U3A C4G C62U A70C,0.754
22,U3A C4G G6A U26G,≤ 0.5
23,U3A C4G U8A C24G G52A,≤ 0.5
24,U3A C4U C33U C61A,≤ 0.5

row,Variant,yeast fitness
1,U3A C4U G67C,0.624
2,U3A C4U U7A A36C A45C U54A A57C,≤ 0.5
3,U3A C4U U7A C24U C61A C62G A65G,≤ 0.5
4,U3A C4U U7A C29U U32G A43U G44C C61U,≤ 0.5
5,U3A C5A,0.806
6,U3A C5A C33U G51C,≤ 0.5
7,U3A C5A U8G G10A C46U A57C G68C A70U,≤ 0.5
8,U3A C5G A21U A36C,≤ 0.5
9,U3A C5G G56U,≤ 0.5
10,U3A C5U C29A,≤ 0.5
11,U3A C11G C31G C49U,≤ 0.5
12,U3A C11G G12A C22U,≤ 0.5
13,U3A C11G G12A C22U G39A U64A,≤ 0.5
14,U3A C22A C33G A37C G50A,≤ 0.5
15,U3A C22G C29U G63A,≤ 0.5
16,U3A C24G A36G C61A,≤ 0.5
17,U3A C27A A69U,0.627
18,U3A C27U G67U,0.606
19,U3A C30G A42G,≤ 0.5
20,U3A C30G C66G,≤ 0.5
21,U3A G9A U19A G44C,≤ 0.5
22,U3A G9A U19A G50A C55A C66A,≤ 0.5
23,U3A G9C C27G C34A,≤ 0.5
24,U3A G10A C49A,≤ 0.5

row,Variant,yeast fitness
1,U3A G12A A20C C29G,≤ 0.5
2,U3A G17A C22U A43G C55A,≤ 0.5
3,U3A G17A C22U A43G G68C,≤ 0.5
4,U3A G52A,0.764
5,U3A G56A,1.02
6,U3A U7A A15U U26C C29G C31U,≤ 0.5
7,U3A U7A G12C C46U,≤ 0.5
8,U3A U7C U19A C27A,≤ 0.5
9,U3A U8A A42C G52C,≤ 0.5
10,U3A U8G G39C C60G A70U,≤ 0.5
11,U3A U19A C46A G56A,0.564
12,U3C A14G,0.917
13,U3C A14G C22A C27G G39C C62G,≤ 0.5
14,U3C A14U A21U C60G G67A,≤ 0.5
15,U3C A15C A65C,≤ 0.5
16,U3C A15U U32A C33G U53A,≤ 0.5
17,U3C A21C C22U C31U C33U,≤ 0.5
18,U3C A36U G39A C60A,≤ 0.5
19,U3C A37C A57U,≤ 0.5
20,U3C A40G C46A A69C,0.706
21,U3C A40U A69U,0.755
22,U3C A45G U54A C61U,≤ 0.5
23,U3C A45U G50A A57C,≤ 0.5
24,U3C C4A A65C,0.62

row,Variant,yeast fitness
1,U3C C4U A40G A43U C55G,≤ 0.5
2,U3C C5G A15U A21C G39C,≤ 0.5
3,U3C C5U G39C,0.57
4,U3C C5U U8C U13C C29U C46A A65U C66A,≤ 0.5
5,U3C C11A U32G,≤ 0.5
6,U3C C11A U32G C61A C62A,0.587
7,U3C C11U U16C C30G C31G A37U,≤ 0.5
8,U3C C22A U47A A70G,≤ 0.5
9,U3C C22G C27A,≤ 0.5
10,U3C C22G C55U C61A,≤ 0.5
11,U3C C24G C31A A43U A65C,≤ 0.5
12,U3C C24U G56A,0.757
13,U3C C27G C33A U47G A70G,≤ 0.5
14,U3C C29U C33A G38A,≤ 0.5
15,U3C C30U A37G U59A,≤ 0.5
16,U3C C31U C62U,0.804
17,U3C C46G A69C,0.625
18,U3C C49G A65U,0.658
19,U3C C60A C61G A65C,≤ 0.5
20,U3C G6A C30U A45G C46U,≤ 0.5
21,U3C G6A C30U A45G C46U C49G,≤ 0.5
22,U3C G9A A15U C30A A42G,0.506
23,U3C G9A A15U G68A,≤ 0.5
24,U3C G9C C11U A21U G48C C55A C66G G67C,≤ 0.5

row,Variant,yeast fitness
1,U3C G9C C11U C30G A43C A69U,≤ 0.5
2,U3C G10A C49A C60G,≤ 0.5
3,U3C G10C A14C,≤ 0.5
4,U3C G10C C34G U59A,≤ 0.5
5,U3C G18C C31G,≤ 0.5
6,U3C G38C A40U G51A C60U G68A,≤ 0.5
7,U3C G48C C66U,0.761
8,U3C G51C,0.521
9,U3C G51C U59G,≤ 0.5
10,U3C U8A A15C C31G C49U A57U G67C,≤ 0.5
11,U3C U13A C22G C31G C61A,≤ 0.5
12,U3C U13A C31U G41A,0.524
13,U3C U13A C31U G41A A57C A70U,≤ 0.5
14,U3C U13C C24U G52A G68U,≤ 0.5
15,U3C U16A A20U C24G C33G C61A G67C,≤ 0.5
16,U3C U19A C22U G63A,≤ 0.5
17,U3C U35A A40U A42U C55G,≤ 0.5
18,U3C U53A,0.664
19,U3C U59A C61G,0.587
20,U3G A14C A42U G44C C66U,≤ 0.5
21,U3G A15G C24G G50A C55U G68A,≤ 0.5
22,U3G A37C A40G U47C G63A,≤ 0.5
23,U3G A43G A65U,0.701
